Results are given in words; binding and its absence hold for the method and conditions named. In cells and extracts the contact can be indirect. A yes stands for co-enrichment or nearness to the bait. Other partners may have been found.
target: EGFP-tagged PRRSV nucleocapsid (N) protein (PRRSV (type 2, strain 01NP1)); experiment: affinity purification with mass spectrometry; EGFP-N (control: EGFP) overexpressed in HEK293T, captured from lysate on GFP-trap agarose beads; lysis and wash buffer 50 mM HEPES pH 7.4, 150 mM NaCl, 1 mM EDTA, 10% glycerol, 1% Triton X-100; 2 h at 4 °C, 7 washes; label-free LC-MS/MS, three biological replicates; hits: mean enrichment ratio >= 8, p <= 0.02

Binder | binding
5′-3′ exoribonuclease XRN2 (protein, UniProt Q9H0D6 1-950) MGVPAFFRWLSRKYPSIIVNCVEEKPKECNGVKIPVDASKPNPNDVEFDNLYLDMNGIIHPCTHPEDKPAPKNEDEMMVAIFEYIDRLFSIVRPRRLLYMAIDGVAPRAKMNQQRSRRFRASKEGMEAAVEKQRVREEILAKGGFLPPEEIKERFDSNCITPGTEFMDNLAKCLRYYIADRLNNDPGWKNLTVILSDASAPGEGEHKIMDYIRRQRAQPNHDPNTHHCLCGADADLIMLGLATHEPNFTIIREEFKPNKPKPCGLCNQFGHEVKDCEGLPREKKGKHDELADSLPCAEGEFIFLRLNVLREYLERELTMASLPFTFDVERSIDDWVFMCFFVGNDFLPHLPSLEIRENAIDRLVNIYKNVVHKTGGYLTESGYVNLQRVQMIMLAVGEVEDSIFKKRKDDEDSFRRRQKEKRKRMKRDQPAFTPSGILTPHALGSRNSPGSQVASNPRQAAYEMRMQNNSSPSISPNTSFTSDGSPSPLGGIKRKAEDSDSEPEPEDNVRLWEAGWKQRYYKNKFDVDAADEKFRRKVVQSYVEGLCWVLRYYYQGCASWKWYYPFHYAPFASDFEGIADMPSDFEKGTKPFKPLEQLMGVFPAASGNFLPPSWRKLMSDPDSSIIDFYPEDFAIDLNGKKYAWQGVALLPFVDERRLRAALEEVYPDLTPEETRRNSLGGDVLFVGKHHPLHDFILELYQTGSTEPVEVPPELCHGIQGKFSLDEEAILPDQIVCSPVPMLRDLTQNTVVSINFKDPQFAEDYIFKAVMLPGARKPAAVLKPSDWEKSSNGRQWKPQLGFNRDRRPVHLDQAAFRTLGHVMPRGSGTGIYSNAAPPPVTYQGNLYRPLLRGQAQIPKLMSNMRPQDSWRGPPPLFQQQRFDRGVGAEPLLPWNRMLQTQNAAFQPNQYQMLAGPGGYPPRRDDRGGRQGYPREGRKYPLPPPSGRYNWN | binds
tRNA-splicing ligase Rtcb homologue (endogenous, human) (protein, UniProt Q9Y3I0 1-505) MSRSYNDELQFLEKINKNCWRIKKGFVPNMQVEGVFYVNDALEKLMFEELRNACRGGGVGGFLPAMKQIGNVAALPGIVHRSIGLPDVHSGYGFAIGNMAAFDMNDPEAVVSPGGVGFDINCGVRLLRTNLDESDVQPVKEQLAQAMFDHIPVGVGSKGVIPMNAKDLEEALEMGVDWSLREGYAWAEDKEHCEEYGRMLQADPNKVSARAKKRGLPQLGTLGAGNHYAEIQVVDEIFNEYAAKKMGIDHKGQVCVMIHSGSRGLGHQVATDALVAMEKAMKRDKIIVNDRQLACARIASPEGQDYLKGMAAAGNYAWVNRSSMTFLTRQAFAKVFNTTPDDLDLHVIYDVSHNIAKVEQHVVDGKERTLLVHRKGSTRAFPPHHPLIAVDYQLTGQPVLIGGTMGTCSYVLTGTEQGMTETFGTTCHGAGRALSRAKSRRNLDFQDVLDKLADMGIAIRVASPKLVMEEAPESYKNVTDVVNTCHDAGISKKAIKLRPIAVIKG | binds
treacle protein (protein, UniProt Q13428 1-1488) MAEARKRRELLPLIYHHLLRAGYVRAAREVKEQSGQKCFLAQPVTLLDIYTHWQQTSELGRKRKAEEDAALQAKKTRVSDPISTSESSEEEEEAEAETAKATPRLASTNSSVLGADLPSSMKEKAKAETEKAGKTGNSMPHPATGKTVANLLSGKSPRKSAEPSANTTLVSETEEEGSVPAFGAAAKPGMVSAGQADSSSEDTSSSSDETDVEGKPSVKPAQVKASSVSTKESPARKAAPAPGKVGDVTPQVKGGALPPAKRAKKPEEESESSEEGSESEEEAPAGTRSQVKASEKILQVRAASAPAKGTPGKGATPAPPGKAGAVASQTKAGKPEEDSESSSEESSDSEEETPAAKALLQAKASGKTSQVGAASAPAKESPRKGAAPAPPGKTGPAVAKAQAGKREEDSQSSSEESDSEEEAPAQAKPSGKAPQVRAASAPAKESPRKGAAPAPPRKTGPAAAQVQVGKQEEDSRSSSEESDSDREALAAMNAAQVKPLGKSPQVKPASTMGMGPLGKGAGPVPPGKVGPATPSAQVGKWEEDSESSSEESSDSSDGEVPTAVAPAQEKSLGNILQAKPTSSPAKGPPQKAGPVAVQVKAEKPMDNSESSEESSDSADSEEAPAAMTAAQAKPALKIPQTKACPKKTNTTASAKVAPVRVGTQAPRKAGTATSPAGSSPAVAGGTQRPAEDSSSSEESDSEEEKTGLAVTVGQAKSVGKGLQVKAASVPVKGSLGQGTAPVLPGKTGPTVTQVKAEKQEDSESSEEESDSEEAAASPAQVKTSVKKTQAKANPAAARAPSAKGTISAPGKVVTAAAQAKQRSPSKVKPPVRNPQNSTVLARGPASVPSVGKAVATAAQAQTGPEEDSGSSEEESDSEEEAETLAQVKPSGKTHQIRAALAPAKESPRKGAAPTPPGKTGPSAAQAGKQDDSGSSSEESDSDGEAPAAVTSAQVIKPPLIFVDPNRSPAGPAATPAQAQAASTPRKARASESTARSSSSESEDEDVIPATQCLTPGIRTNVVTMPTAHPRIAPKASMAGASSSKESSRISDGKKQEGPATQVSKKNPASLPLTQAALKVLAQKASEAQPPVARTQPSSGVDSAVGTLPATSPQSTSVQAKGTNKLRKPKLPEVQQATKAPESSDDSEDSSDSSSGSEEDGEGPQGAKSAHTLGPTPSRTETLVEETAAESSEDDVVAPSQSLLSGYMTPGLTPANSQASKATPKLDSSPSVSSTLAAKDDPDGKQEAKPQQAAGMLSPKTGGKEAASGTTPQKSRKPKKGAGNPQASTLALQSNITQCLLGQPWPLNEAQVQASVVKVLTELLEQERKKVVDTTKESSRKGWESRKRKLSGDQPAARTPRSKKKKKLGAGEGGEASVSPEKTSTTSKGKAKRDKASGDVKEKKGKGSLGSQGAKDEPEEELQKGMGTVEGGDQSNPKSKKEKKKSDKRKKDKEKKEKKKKAKKASTKDSESPSQKKKKKKKKTAEQTV | binds
Myb-binding protein 1A (endogenous, human) (protein, UniProt Q9BQG0 1-1328) MESRDPAQPMSPGEATQSGARPADRYGLLKHSREFLDFFWDIAKPEQETRLAATEKLLEYLRGRPKGSEMKYALKRLITGLGVGRETARPCYSLALAQLLQSFEDLPLCSILQQIQEKYDLHQVKKAMLRPALFANLFGVLALFQSGRLVKDQEALMKSVKLLQALAQYQNHLQEQPRKALVDILSEVSKATLQEILPEVLKADLNIILSSPEQLELFLLAQQKVPSKLKKLVGSVNLFSDENVPRLVNVLKMAASSVKKDRKLPAIALDLLRLALKEDKFPRFWKEVVEQGLLKMQFWPASYLCFRLLGAALPLLTKEQLHLVMQGDVIRHYGEHVCTAKLPKQFKFAPEMDDYVGTFLEGCQDDPERQLAVLVAFSSVTNQGLPVTPTFWRVVRFLSPPALQGYVAWLRAMFLQPDLDSLVDFSTNNQKKAQDSSLHMPERAVFRLRKWIIFRLVSIVDSLHLEMEEALTEQVARFCLFHSFFVTKKPTSQIPETKHPFSFPLENQAREAVSSAFFSLLQTLSTQFKQAPGQTQGGQPWTYHLVQFADLLLNHSHNVTTVTPFTAQQRQAWDRMLQTLKELEAHSAEARAAAFQHLLLLVGIHLLKSPAESCDLLGDIQTCIRKSLGEKPRRSRTKTIDPQEPPWVEVLVEILLALLAQPSHLMRQVARSVFGHICSHLTPRALQLILDVLNPETSEDENDRVVVTDDSDERRLKGAEDKSEEGEDNRSSESEEESEGEESEEEERDGDVDQGFREQLMTVLQAGKALGGEDSENEEELGDEAMMALDQSLASLFAEQKLRIQARRDEKNKLQKEKALRRDFQIRVLDLVEVLVTKQPENALVLELLEPLLSIIRRSLRSSSSKQEQDLLHKTARIFTHHLCRARRYCHDLGERAGALHAQVERLVQQAGRQPDSPTALYHFNASLYLLRVLKGNTAEGCVHETQEKQKAGTDPSHMPTGPQAASCLDLNLVTRVYSTALSSFLTKRNSPLTVPMFLSLFSRHPVLCQSLLPILVQHITGPVRPRHQACLLLQKTLSMREVRSCFEDPEWKQLMGQVLAKVTENLRVLGEAQTKAQHQQALSSLELLNVLFRTCKHEKLTLDLTVLLGVLQGQQQSLQQGAHSTGSSRLHDLYWQAMKTLGVQRPKLEKKDAKEIPSATQSPISKKRKKKGFLPETKKRKKRKSEDGTPAEDGTPAATGGSQPPSMGRKKRNRTKAKVPAQANGTPTTKSPAPGAPTRSPSTPAKSPKLQKKNQKPSQVNGAPGSPTEPAGQKQHQKALPKKGVLGKSPLSALARKKARLSLVIRSPSLLQSGAKKKAQVRKAGKP | binds

Reference: PMC12604043
